In the supplement of paper PMC12823440, “Inhibitors supercharge kinase turnover through native proteolytic circuits” (Nature, 2025):
Structures can show the parent of a compound that is named as a salt. Some of the results follow. Hit calls seldom repeat between salt and free forms of one compound.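 Kinases were expressed as nanoluciferase fusions in K562 cells and luminescence was read every 4 h between 2 and 18 h as percent of control, DMSO set to 100% and a positive control to 0%. A time point counts as decreased when the signal drops significantly (2 sigma). The hit call is the authors' own, does not follow from the count of time points alone, and its rule is not shown.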

The chains behind the UniProt entries cited, without tags or fusion partners. Where a name states a change or a piece, a line headed by the entry shows the natural chain unless it says otherwise.
UniProt P29597: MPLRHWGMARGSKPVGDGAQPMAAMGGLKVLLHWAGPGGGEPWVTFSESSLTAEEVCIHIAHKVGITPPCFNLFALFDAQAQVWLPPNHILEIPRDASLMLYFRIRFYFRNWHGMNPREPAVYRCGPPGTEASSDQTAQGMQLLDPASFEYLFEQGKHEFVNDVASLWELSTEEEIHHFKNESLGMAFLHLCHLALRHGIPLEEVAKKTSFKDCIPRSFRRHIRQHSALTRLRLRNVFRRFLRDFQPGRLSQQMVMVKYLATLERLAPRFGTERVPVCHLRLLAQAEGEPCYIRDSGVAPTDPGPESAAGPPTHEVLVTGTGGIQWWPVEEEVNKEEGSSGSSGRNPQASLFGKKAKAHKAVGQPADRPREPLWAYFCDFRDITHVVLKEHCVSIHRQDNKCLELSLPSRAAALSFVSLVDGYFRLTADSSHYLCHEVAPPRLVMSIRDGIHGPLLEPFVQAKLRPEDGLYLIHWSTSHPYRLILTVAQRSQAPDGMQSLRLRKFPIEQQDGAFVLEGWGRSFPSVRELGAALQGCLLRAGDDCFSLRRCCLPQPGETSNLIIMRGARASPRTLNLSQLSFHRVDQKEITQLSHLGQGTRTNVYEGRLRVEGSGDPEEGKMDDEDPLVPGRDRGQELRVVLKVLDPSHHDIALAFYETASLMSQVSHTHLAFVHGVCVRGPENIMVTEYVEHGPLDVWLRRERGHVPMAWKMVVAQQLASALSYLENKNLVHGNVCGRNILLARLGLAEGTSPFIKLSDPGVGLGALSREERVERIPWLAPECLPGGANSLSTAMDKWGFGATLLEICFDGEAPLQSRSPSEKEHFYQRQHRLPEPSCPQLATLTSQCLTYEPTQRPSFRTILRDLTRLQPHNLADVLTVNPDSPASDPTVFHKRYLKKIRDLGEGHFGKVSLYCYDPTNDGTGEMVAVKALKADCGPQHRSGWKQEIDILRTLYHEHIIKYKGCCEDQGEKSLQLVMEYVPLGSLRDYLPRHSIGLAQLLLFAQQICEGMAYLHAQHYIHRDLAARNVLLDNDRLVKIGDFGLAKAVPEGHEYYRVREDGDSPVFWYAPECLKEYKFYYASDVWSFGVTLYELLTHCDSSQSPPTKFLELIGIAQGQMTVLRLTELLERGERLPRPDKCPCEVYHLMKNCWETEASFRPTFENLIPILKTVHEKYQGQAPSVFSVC
UniProt P07947, whole entry, looked up: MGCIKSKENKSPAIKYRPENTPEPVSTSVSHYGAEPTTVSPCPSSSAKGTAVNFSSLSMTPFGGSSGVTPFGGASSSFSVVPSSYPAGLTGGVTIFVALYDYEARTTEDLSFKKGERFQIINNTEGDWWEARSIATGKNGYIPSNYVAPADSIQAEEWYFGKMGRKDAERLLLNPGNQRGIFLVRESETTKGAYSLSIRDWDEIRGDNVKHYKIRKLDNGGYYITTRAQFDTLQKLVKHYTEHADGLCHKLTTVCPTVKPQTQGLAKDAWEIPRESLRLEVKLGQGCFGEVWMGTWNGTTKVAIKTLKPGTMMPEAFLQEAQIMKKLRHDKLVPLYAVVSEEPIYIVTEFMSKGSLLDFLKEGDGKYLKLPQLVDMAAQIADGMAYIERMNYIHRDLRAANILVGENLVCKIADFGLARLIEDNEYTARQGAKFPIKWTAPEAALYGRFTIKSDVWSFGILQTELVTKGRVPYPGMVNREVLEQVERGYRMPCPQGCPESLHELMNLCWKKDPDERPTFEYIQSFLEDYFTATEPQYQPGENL
UniProt P43403: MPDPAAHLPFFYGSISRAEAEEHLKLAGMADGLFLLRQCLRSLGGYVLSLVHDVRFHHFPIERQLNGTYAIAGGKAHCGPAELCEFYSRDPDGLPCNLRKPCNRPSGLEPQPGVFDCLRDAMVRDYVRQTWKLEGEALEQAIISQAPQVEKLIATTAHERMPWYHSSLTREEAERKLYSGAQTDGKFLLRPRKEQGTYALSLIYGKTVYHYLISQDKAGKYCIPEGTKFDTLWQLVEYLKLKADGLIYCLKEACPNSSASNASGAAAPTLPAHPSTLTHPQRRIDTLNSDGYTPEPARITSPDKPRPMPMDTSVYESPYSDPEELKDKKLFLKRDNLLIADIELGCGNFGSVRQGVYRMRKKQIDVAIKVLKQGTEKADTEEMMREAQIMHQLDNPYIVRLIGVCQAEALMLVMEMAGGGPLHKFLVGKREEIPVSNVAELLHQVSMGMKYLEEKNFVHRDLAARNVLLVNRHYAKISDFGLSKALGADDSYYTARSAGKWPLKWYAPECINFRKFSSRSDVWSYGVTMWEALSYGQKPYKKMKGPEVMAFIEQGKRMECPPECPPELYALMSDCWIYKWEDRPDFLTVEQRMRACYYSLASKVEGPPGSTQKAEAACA
UniProt P31749: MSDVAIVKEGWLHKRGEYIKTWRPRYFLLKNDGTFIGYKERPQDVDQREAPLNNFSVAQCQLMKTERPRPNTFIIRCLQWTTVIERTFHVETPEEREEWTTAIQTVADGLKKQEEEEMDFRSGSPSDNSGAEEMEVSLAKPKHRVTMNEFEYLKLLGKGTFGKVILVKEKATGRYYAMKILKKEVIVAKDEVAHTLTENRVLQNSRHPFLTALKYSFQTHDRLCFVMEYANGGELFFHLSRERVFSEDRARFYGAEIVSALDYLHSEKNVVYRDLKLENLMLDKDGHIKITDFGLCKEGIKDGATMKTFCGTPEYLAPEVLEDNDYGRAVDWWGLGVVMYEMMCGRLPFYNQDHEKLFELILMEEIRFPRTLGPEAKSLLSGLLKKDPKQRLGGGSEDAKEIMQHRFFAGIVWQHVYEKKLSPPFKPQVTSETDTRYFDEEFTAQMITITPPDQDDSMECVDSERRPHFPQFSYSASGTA
UniProt Q9UM73: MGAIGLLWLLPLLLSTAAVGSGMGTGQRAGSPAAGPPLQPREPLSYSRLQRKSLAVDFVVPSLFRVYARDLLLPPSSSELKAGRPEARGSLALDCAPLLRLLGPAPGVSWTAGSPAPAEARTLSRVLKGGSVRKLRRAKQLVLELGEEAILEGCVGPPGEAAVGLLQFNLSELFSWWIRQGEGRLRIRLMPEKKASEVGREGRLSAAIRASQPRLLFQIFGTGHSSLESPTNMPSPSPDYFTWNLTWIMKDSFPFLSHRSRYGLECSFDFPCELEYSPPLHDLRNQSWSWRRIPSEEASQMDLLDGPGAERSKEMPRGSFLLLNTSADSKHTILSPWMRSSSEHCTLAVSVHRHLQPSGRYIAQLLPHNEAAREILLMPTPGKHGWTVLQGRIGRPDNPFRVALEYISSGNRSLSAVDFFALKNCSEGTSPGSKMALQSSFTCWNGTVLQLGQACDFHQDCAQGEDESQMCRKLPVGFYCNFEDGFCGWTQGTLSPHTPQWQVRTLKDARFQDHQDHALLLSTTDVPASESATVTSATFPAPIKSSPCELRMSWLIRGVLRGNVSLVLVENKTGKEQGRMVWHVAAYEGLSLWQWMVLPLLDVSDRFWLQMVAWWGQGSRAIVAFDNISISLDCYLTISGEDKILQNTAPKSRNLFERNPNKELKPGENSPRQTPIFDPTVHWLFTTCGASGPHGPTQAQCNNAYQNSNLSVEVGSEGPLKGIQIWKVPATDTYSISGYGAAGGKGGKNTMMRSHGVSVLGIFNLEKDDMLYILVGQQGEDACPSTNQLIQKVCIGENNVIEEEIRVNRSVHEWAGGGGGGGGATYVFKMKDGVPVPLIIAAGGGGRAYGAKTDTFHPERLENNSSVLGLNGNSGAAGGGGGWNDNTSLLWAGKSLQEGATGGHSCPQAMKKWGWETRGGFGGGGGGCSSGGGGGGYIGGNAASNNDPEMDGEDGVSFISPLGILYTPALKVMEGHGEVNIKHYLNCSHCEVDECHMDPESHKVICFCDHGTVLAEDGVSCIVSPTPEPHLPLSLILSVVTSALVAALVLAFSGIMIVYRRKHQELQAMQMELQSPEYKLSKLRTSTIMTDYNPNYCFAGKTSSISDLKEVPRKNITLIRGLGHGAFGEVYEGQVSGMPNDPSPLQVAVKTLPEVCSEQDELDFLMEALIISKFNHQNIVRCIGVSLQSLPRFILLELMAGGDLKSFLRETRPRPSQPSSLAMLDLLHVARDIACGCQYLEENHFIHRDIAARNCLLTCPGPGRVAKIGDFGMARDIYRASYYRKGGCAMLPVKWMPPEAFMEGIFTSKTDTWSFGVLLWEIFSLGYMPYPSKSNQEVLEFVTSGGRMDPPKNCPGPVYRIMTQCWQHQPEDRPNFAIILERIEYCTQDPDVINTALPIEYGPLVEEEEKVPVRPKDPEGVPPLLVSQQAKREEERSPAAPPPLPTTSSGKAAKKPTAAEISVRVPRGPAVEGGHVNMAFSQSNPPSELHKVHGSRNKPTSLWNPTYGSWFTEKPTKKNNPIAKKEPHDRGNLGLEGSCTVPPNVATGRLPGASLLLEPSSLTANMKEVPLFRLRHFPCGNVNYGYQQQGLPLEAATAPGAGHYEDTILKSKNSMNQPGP
UniProt O14965: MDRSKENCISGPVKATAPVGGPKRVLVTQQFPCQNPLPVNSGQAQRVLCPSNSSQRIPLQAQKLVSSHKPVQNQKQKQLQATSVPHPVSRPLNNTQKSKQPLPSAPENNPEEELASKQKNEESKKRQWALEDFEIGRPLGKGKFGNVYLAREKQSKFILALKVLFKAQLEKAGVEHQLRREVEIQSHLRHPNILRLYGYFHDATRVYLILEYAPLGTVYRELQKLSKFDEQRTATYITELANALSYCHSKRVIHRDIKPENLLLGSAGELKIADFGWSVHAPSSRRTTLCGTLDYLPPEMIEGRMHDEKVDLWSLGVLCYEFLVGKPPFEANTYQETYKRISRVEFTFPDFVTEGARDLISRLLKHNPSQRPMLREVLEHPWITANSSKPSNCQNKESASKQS
UniProt Q96GD4, whole entry: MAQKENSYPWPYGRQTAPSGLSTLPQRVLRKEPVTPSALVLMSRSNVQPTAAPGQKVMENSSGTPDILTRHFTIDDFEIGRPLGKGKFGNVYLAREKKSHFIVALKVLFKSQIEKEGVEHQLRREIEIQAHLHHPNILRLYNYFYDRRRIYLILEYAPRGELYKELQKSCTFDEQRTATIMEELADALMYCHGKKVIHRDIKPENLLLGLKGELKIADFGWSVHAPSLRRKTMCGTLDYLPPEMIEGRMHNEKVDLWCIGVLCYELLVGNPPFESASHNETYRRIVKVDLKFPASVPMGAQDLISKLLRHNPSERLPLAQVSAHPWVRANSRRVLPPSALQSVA
UniProt P51813: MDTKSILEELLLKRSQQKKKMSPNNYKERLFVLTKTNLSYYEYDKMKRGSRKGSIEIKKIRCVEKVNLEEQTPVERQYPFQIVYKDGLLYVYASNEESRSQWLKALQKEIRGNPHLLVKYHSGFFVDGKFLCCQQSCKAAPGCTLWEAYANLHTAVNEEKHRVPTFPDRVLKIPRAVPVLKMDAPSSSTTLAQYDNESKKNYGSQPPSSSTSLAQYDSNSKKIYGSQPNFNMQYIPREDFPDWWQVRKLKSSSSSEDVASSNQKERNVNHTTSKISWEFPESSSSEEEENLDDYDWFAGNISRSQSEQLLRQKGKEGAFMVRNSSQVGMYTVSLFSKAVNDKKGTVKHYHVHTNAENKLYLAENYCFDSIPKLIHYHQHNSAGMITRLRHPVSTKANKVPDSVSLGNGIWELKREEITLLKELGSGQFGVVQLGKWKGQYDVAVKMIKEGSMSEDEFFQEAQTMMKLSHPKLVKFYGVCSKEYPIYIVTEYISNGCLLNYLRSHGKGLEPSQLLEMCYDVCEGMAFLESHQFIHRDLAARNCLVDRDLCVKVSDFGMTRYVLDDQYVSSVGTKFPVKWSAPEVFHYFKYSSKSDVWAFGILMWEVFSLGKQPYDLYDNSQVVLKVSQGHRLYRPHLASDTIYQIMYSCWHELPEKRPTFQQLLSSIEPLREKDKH
UniProt Q06187: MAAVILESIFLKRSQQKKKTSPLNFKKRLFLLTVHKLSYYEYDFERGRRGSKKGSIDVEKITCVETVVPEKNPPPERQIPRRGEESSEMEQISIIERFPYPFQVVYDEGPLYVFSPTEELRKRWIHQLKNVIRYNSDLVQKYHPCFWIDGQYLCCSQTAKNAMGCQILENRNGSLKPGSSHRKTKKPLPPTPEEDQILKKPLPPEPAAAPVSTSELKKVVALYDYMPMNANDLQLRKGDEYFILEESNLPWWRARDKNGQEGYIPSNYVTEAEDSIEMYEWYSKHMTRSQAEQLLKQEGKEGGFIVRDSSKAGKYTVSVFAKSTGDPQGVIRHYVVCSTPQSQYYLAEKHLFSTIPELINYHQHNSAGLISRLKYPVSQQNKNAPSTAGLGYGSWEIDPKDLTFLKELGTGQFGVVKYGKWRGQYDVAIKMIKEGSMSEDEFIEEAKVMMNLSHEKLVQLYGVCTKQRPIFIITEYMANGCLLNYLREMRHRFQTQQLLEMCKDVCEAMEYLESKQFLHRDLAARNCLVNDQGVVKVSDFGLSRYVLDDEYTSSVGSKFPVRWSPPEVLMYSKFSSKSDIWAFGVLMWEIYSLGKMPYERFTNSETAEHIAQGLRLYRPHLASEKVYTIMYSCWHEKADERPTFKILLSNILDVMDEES

Key:
Conditions in all cases: K562; 2-18 h
STK38 = STK38 (UniProt Q15208); assay: kinase-Nluc reporter destabilization hit call (1 = scored as downregulated) (binary); higher = compound decreases kinase abundance
SYK = SYK (UniProt P43405); assay: as above
TEC = TEC (UniProt P42680); assay: as above
TYK2 = TYK2 (UniProt P29597); assay: as above
ULK3 = ULK3 (UniProt Q6PHR2); assay: as above
YES1 = YES1 (UniProt P07947); assay: as above
ZAK = ZAK (UniProt Q9NYL2); assay: as above
ZAP70 = ZAP70 (UniProt P43403); assay: as above
ABL1 = ABL1 (UniProt P00519); assay: number of time points (of 5) at which kinase-Nluc abundance scored as decreased, DMSO-normalised (count); higher = more persistent destabilization
AKT1 = AKT1 (UniProt P31749); assay: as above
ALK = ALK (UniProt Q9UM73); assay: as above
ARAF = ARAF (UniProt P10398); assay: as above
AURKA = AURKA (UniProt O14965); assay: as above
AURKB = AURKB (UniProt Q96GD4); assay: as above
AURKC = AURKC (UniProt Q9UQB9); assay: as above
BLK = BLK (UniProt P51451); assay: as above
BMX = BMX (UniProt P51813); assay: as above
BRAF = BRAF (UniProt P15056); assay: as above
BRAF_V600E = assay: as above
BTK = BTK (UniProt Q06187); assay: as above

COC(=O)[C@H](CCSC)NC(=O)c1ccc(NC[C@@H](N)CS)cc1-c1ccccc1 [FTI-277 (hydrochloride)] (10 µM)
inactive: kinase-Nluc reporter destabilization hit call (STK38) 0 | kinase-Nluc reporter destabilization hit call (SYK) 0 | kinase-Nluc reporter destabilization hit call (TEC) 0 | kinase-Nluc reporter destabilization hit call (TYK2) 0 | kinase-Nluc reporter destabilization hit call (ULK3) 0 | kinase-Nluc reporter destabilization hit call (YES1) 0 | kinase-Nluc reporter destabilization hit call (ZAK) 0 | kinase-Nluc reporter destabilization hit call (ZAP70) 0
0: number of time points (ABL1) | number of time points (AKT1) | number of time points (ALK) | number of time points (ARAF) | number of time points (AURKA) | number of time points (AURKB) | number of time points (AURKC) | number of time points (BLK) | number of time points (BMX) | number of time points (BRAF) | number of time points (BRAF_V600E) | number of time points (BTK)

Nc1nc(N)c2nc(-c3cccc(O)c3)c(-c3cccc(O)c3)nc2n1 (10 µM)
inactive: kinase-Nluc reporter destabilization hit call (STK38) 0 | kinase-Nluc reporter destabilization hit call (SYK) 0 | kinase-Nluc reporter destabilization hit call (TEC) 0 | kinase-Nluc reporter destabilization hit call (TYK2) 0 | kinase-Nluc reporter destabilization hit call (ULK3) 0 | kinase-Nluc reporter destabilization hit call (YES1) 0 | kinase-Nluc reporter destabilization hit call (ZAK) 0 | kinase-Nluc reporter destabilization hit call (ZAP70) 0
0: number of time points (ABL1) | number of time points (AKT1) | number of time points (ALK) | number of time points (ARAF) | number of time points (AURKA) | number of time points (AURKB) | number of time points (AURKC) | number of time points (BLK) | number of time points (BMX) | number of time points (BRAF) | number of time points (BRAF_V600E) | number of time points (BTK)

Cn1c(CNc2cccc(C(=O)NCc3ccccc3C(F)(F)F)c2)nnc1-c1ccncc1 (10 µM)
0: number of time points (ABL1) | number of time points (AKT1) | number of time points (ALK) | number of time points (ARAF) | number of time points (AURKA) | number of time points (AURKB) | number of time points (AURKC) | number of time points (BLK) | number of time points (BMX) | number of time points (BRAF) | number of time points (BRAF_V600E) | number of time points (BTK)
inactive: kinase-Nluc reporter destabilization hit call (STK38) 0 | kinase-Nluc reporter destabilization hit call (SYK) 0 | kinase-Nluc reporter destabilization hit call (TEC) 0 | kinase-Nluc reporter destabilization hit call (TYK2) 0 | kinase-Nluc reporter destabilization hit call (ULK3) 0 | kinase-Nluc reporter destabilization hit call (YES1) 0 | kinase-Nluc reporter destabilization hit call (ZAK) 0 | kinase-Nluc reporter destabilization hit call (ZAP70) 0

CC(C)Oc1ccc(F)c(-c2cnc(N)c(C(=O)Nc3cnccc3N3CCC[C@@H](C(=O)O)C3)n2)c1 (2 µM)
2: number of time points (BMX)
1: number of time points (BRAF_V600E)
inactive: kinase-Nluc reporter destabilization hit call (STK38) 0 | kinase-Nluc reporter destabilization hit call (SYK) 0 | kinase-Nluc reporter destabilization hit call (TEC) 0 | kinase-Nluc reporter destabilization hit call (TYK2) 0 | kinase-Nluc reporter destabilization hit call (ULK3) 0 | kinase-Nluc reporter destabilization hit call (YES1) 0 | kinase-Nluc reporter destabilization hit call (ZAK) 0 | kinase-Nluc reporter destabilization hit call (ZAP70) 0
0: number of time points (ABL1) | number of time points (AKT1) | number of time points (ALK) | number of time points (ARAF) | number of time points (AURKA) | number of time points (AURKB) | number of time points (AURKC) | number of time points (BLK) | number of time points (BRAF) | number of time points (BTK)

Cc1ccc(C(=O)NC2CC2)cc1-n1ncc(C(=O)c2cccc(C#N)c2)c1N [Acumapimod] (10 µM)
inactive: kinase-Nluc reporter destabilization hit call (STK38) 0 | kinase-Nluc reporter destabilization hit call (SYK) 0 | kinase-Nluc reporter destabilization hit call (TEC) 0 | kinase-Nluc reporter destabilization hit call (TYK2) 0 | kinase-Nluc reporter destabilization hit call (ULK3) 0 | kinase-Nluc reporter destabilization hit call (YES1) 0 | kinase-Nluc reporter destabilization hit call (ZAK) 0 | kinase-Nluc reporter destabilization hit call (ZAP70) 0
0: number of time points (ABL1) | number of time points (AKT1) | number of time points (ALK) | number of time points (ARAF) | number of time points (AURKA) | number of time points (AURKB) | number of time points (AURKC) | number of time points (BLK) | number of time points (BMX) | number of time points (BRAF) | number of time points (BRAF_V600E) | number of time points (BTK)

N[C@@H]1CCCN(c2c(/C=C3\SC(=O)NC3=O)cccc2-c2ccccc2)C1 (10 µM)
0: number of time points (ABL1) | number of time points (AKT1) | number of time points (ALK) | number of time points (ARAF) | number of time points (AURKA) | number of time points (AURKB) | number of time points (AURKC) | number of time points (BLK) | number of time points (BMX) | number of time points (BRAF) | number of time points (BTK)
1: number of time points (BRAF_V600E)
inactive: kinase-Nluc reporter destabilization hit call (STK38) 0 | kinase-Nluc reporter destabilization hit call (SYK) 0 | kinase-Nluc reporter destabilization hit call (TEC) 0 | kinase-Nluc reporter destabilization hit call (TYK2) 0 | kinase-Nluc reporter destabilization hit call (ULK3) 0 | kinase-Nluc reporter destabilization hit call (YES1) 0 | kinase-Nluc reporter destabilization hit call (ZAK) 0 | kinase-Nluc reporter destabilization hit call (ZAP70) 0

CC(Cc1ccc(O)c(O)c1)C(C)Cc1ccc(O)c(O)c1 (stereo not given) [Nordihydroguaiaretic acid] (2.5 µM)
0: number of time points (ABL1) | number of time points (AKT1) | number of time points (ALK) | number of time points (ARAF) | number of time points (AURKA) | number of time points (AURKB) | number of time points (AURKC) | number of time points (BLK) | number of time points (BMX) | number of time points (BRAF) | number of time points (BRAF_V600E) | number of time points (BTK)
inactive: kinase-Nluc reporter destabilization hit call (STK38) 0 | kinase-Nluc reporter destabilization hit call (SYK) 0 | kinase-Nluc reporter destabilization hit call (TEC) 0 | kinase-Nluc reporter destabilization hit call (TYK2) 0 | kinase-Nluc reporter destabilization hit call (ULK3) 0 | kinase-Nluc reporter destabilization hit call (YES1) 0 | kinase-Nluc reporter destabilization hit call (ZAK) 0 | kinase-Nluc reporter destabilization hit call (ZAP70) 0

Oc1c(F)cc(-c2cnccc2-c2ccc(N3CCOCC3)cc2)cc1F (10 µM)
inactive: kinase-Nluc reporter destabilization hit call (STK38) 0 | kinase-Nluc reporter destabilization hit call (SYK) 0 | kinase-Nluc reporter destabilization hit call (TEC) 0 | kinase-Nluc reporter destabilization hit call (TYK2) 0 | kinase-Nluc reporter destabilization hit call (ULK3) 0 | kinase-Nluc reporter destabilization hit call (YES1) 0 | kinase-Nluc reporter destabilization hit call (ZAK) 0 | kinase-Nluc reporter destabilization hit call (ZAP70) 0
0: number of time points (ABL1) | number of time points (AKT1) | number of time points (ALK) | number of time points (ARAF) | number of time points (AURKA) | number of time points (AURKB) | number of time points (AURKC) | number of time points (BLK) | number of time points (BMX) | number of time points (BRAF) | number of time points (BRAF_V600E) | number of time points (BTK)

O=C1CC[C@H](NC(=O)Cc2ccccc2)C(=O)N1 [Antineoplaston A10] (10 µM)
0: number of time points (ABL1) | number of time points (AKT1) | number of time points (ALK) | number of time points (ARAF) | number of time points (AURKA) | number of time points (AURKB) | number of time points (AURKC) | number of time points (BLK) | number of time points (BMX) | number of time points (BRAF) | number of time points (BRAF_V600E) | number of time points (BTK)
inactive: kinase-Nluc reporter destabilization hit call (STK38) 0 | kinase-Nluc reporter destabilization hit call (SYK) 0 | kinase-Nluc reporter destabilization hit call (TEC) 0 | kinase-Nluc reporter destabilization hit call (TYK2) 0 | kinase-Nluc reporter destabilization hit call (ULK3) 0 | kinase-Nluc reporter destabilization hit call (YES1) 0 | kinase-Nluc reporter destabilization hit call (ZAK) 0 | kinase-Nluc reporter destabilization hit call (ZAP70) 0
